Source: PubChem BioAssay AID540276 (National Center for Advancing Translational Sciences (NCATS), 2011)
The whole screen tested about 300,000 compounds, of which about 5,400 (1.8%) were called active. Inconclusive results, whose numbers are uncertain, are shown with a selection of clear calls. The call rests on the fitted dose curve; tested in HEK293 cells. Potencies beside an inconclusive call are fits to weak or partial responses and may not hold up.

Experiment: qHTS for inhibitors of binding or entry into cells for Marburg Virus
Conditions: Marburg virus pseudotyped entry inhibition, cell reporter; activity change, negative = inhibition: at 37.8 µM (top of the series) unless noted
On the % scale 0 is the no-effect control and ±100 the full control effect; potency means the concentration at half of the fitted maximal effect.

| Compound | activity change, negative = inhibition | Potency |
| --- | --- | --- |
| Cc1cc(C)nc(NS(=O)(=O)c2ccc(NC(=S)NC(=O)C3CCCC3)cc2)n1 | inactive: -8.67% | – |
| O=C(NCc1nnc(SCC(=O)N2CCc3ccccc32)o1)c1cccs1 | – | inconclusive: 0.891 µM [inhibitor, full curve, poor fit] |
| COc1ccc(CNC(=O)CN2CCN(C(c3ccccc3)c3ccccc3)CC2)cc1 | – | inconclusive: 10 µM [inhibitor, partial curve, poor fit] |
| N#Cc1ccccc1Cn1cc(C(=O)c2ccco2)c2ccccc21 | – | inconclusive: 0.184 µM [activator, single point] |
| S=C(Nc1ccc(Oc2ccccc2)cc1)N1CCOCC1 | inactive: -2.08% | – |
| Cc1ccc(N2CCN(C3=NC(=O)/C(=C\c4cn[nH]c4-c4ccccc4)S3)CC2)cc1 | – | inconclusive: 0.891 µM [inhibitor, single point] |
| Cc1ccc(NC(=O)C2CC(Cl)=CCC2C(=O)O)c([N+](=O)[O-])c1 (stereo not given) | – | inconclusive: 6.51 µM [inhibitor, single point] |
| COc1ccc(/C=C2\SC(=N)N(c3nccs3)C2=O)cc1OC | – | inconclusive: 7.08 µM [inhibitor, partial curve, poor fit] |
| COc1cccc(C(C(=O)NC(C)(C)C)N(CCC(C)C)C(=O)CCC(=O)Nc2cc(C)on2)c1OC (stereo not given) | – | active: 8.91 µM |
| N#C/C(=C\c1ccc([N+](=O)[O-])cc1)c1nc(C2CC2)cs1 | – | inconclusive: 25.9 µM [activator, partial curve, poor fit] |
| O=C(COC(=O)C1(c2ccc(F)cc2)CCCC1)N1CCc2ccccc21 | – | inconclusive: 1.12 µM [inhibitor, partial curve, poor fit] |
| CCCCN(C(=O)CCC(=O)Nc1cc(C)on1)C(C(=O)NC1CCCC1)c1ccccc1OCC (stereo not given) | – | inconclusive: 10 µM [inhibitor, partial curve] |
| Cc1cccc(CSCCNC(=O)CN(c2ccccc2)S(=O)(=O)N(C)C)c1 | inactive: 15.9% [at 46.1 µM] | – |
| Cc1ccc(SCc2cn3cc(Cl)ccc3n2)cc1 | – | inconclusive: 2.82 µM [activator, single point] |
| C/C(N)=C(/C#N)C(=O)CSc1nnc(-c2ccc(OC(F)F)cc2)o1 | – | inconclusive: 3.55 µM [activator, full curve] |
| COc1ccc(OC)c(NC(=O)CCc2c(C)nc3c(-c4ccccc4)c(C)nn3c2C)c1 | – | inconclusive: 0.794 µM [inhibitor, full curve, poor fit] |
| O=C(N/N=C/C1C(c2ccccc2)C1(Cl)Cl)c1cccc(Cl)c1 (stereo not given) | inactive: 22.8% | – |
| CC(=O)Oc1ccc(C(=O)Nc2cccc(C(=O)c3cccc(NC(=O)c4ccc(OC(C)=O)cc4)c3)c2)cc1 | – | inconclusive: 7.08 µM [inhibitor, partial curve, poor fit] |
| CCC(C)(C)c1ccc(Oc2cccc(C(=O)O)c2)cc1 | inactive: 3.91% [at 46.1 µM] | – |
| O=C(/C=C/c1ccccc1)OCC(=O)c1ccc[nH]1 | – | inconclusive: 35.5 µM [activator, single point] |

| Compound | activity change, negative = inhibition | Potency |
| --- | --- | --- |
| Cn1cc(C(=O)c2ccc(Cl)cc2Cl)cc1C(=O)O | – | inconclusive: 35.5 µM [activator, single point] |
| Cc1cc(C)n(-c2nc(NCCCN(C)C)c3c4c(sc3n2)CCCC4)n1 | – | inconclusive: 12.6 µM [inhibitor, partial curve, poor fit] |
| Cc1ccc(NC(=O)[C@H](Cc2ccccc2)N2Cc3ccccc3C2=O)cc1 | inactive: -2.4% [at 46.1 µM] | – |
| COc1ccccc1NC1=C(Cl)C(=O)N(C2CCCCC2)C1=O | – | inconclusive: 3.98 µM [inhibitor, single point] |
| COc1cccc(-c2cccc(NC(=O)C3CCN(Cc4cccc(C)n4)CC3)c2)c1 | inactive: -4.11% | – |
| COc1ccc(CC(=O)NNC(=O)c2cc(C)oc2C)cc1OC | – | inconclusive: 4.47 µM [inhibitor, single point] |
| COc1ccc(-n2nc(C(=O)NCc3cc(OC)ccc3OC)c3c4ccccc4n(C)c3c2=O)cc1 | – | inconclusive: 5.62 µM [inhibitor, single point] |
| Cc1cc(S(=O)(=O)NCC(c2ccc(F)cc2)N2CCN(C)CC2)ccc1F (stereo not given) | – | inconclusive: 25.1 µM [inhibitor, partial curve, poor fit] |
| COC(=O)CCNC(=O)c1nn(Cc2ccccc2)c(=O)c2ccccc12 | – | inconclusive: 35.5 µM [inhibitor, single point] |
| O=C(COc1ccc(/C=N/NC(=O)CSCc2ccc([N+](=O)[O-])cc2)cc1)NCc1ccco1 | – | active: 11.2 µM |
| CN1/C(=C/C=C(/C#N)C(N)=O)C(C)(C)c2ccccc21 | – | inconclusive: 1.12 µM [inhibitor, full curve, poor fit] |
| CC(C)(C)c1csc(SCC(=O)Nc2ccc(Cl)cn2)n1 | inactive: 6.45% | – |
| Cc1ccc2nc(-c3ccc(S(=O)(=O)N4CCCCC4)cc3)cn2c1 | – | inconclusive: 5.01 µM [activator, partial curve] |
| CC(=O)Nc1ccc(S(=O)(=O)Nc2ccc3c(c2)n(C)c(=O)n3C)c(C)c1 | – | inconclusive: 2.82 µM [activator, partial curve, poor fit] |
| COc1cc2c(c(OC)c1OC)-c1ccc(OC)c(=O)cc1[C@H](NC(C)=O)CC2 | – | inconclusive: 1.41 µM [inhibitor, full curve] |
| Cc1nc2ccc(NC(=S)N3CCN(c4ccccn4)CC3)cc2nc1C | – | inconclusive: 7.94 µM [inhibitor, partial curve, poor fit] |
| COc1ccc(/C=C2\SC(=S)N(C(C)C(=O)NC3C=CS(=O)(=O)C3)C2=O)cc1 (stereo not given) | inactive: 2.52% [at 46.1 µM] | – |
| O=c1c2ccccc2nc(-c2ccco2)n1-c1nccs1 | – | inconclusive: 14.1 µM [inhibitor, partial curve, poor fit] |
| O=C(CCS(=O)(=O)c1ccccc1)N(CCCN1CCOCC1)c1nc2ccccc2s1 | – | inconclusive: 15.8 µM [inhibitor, partial curve, poor fit] |
| CC(=O)N1CCC(C(=O)OCc2ccc(Cl)cc2)(c2ccccc2)CC1 | – | inconclusive: 29.1 µM [inhibitor, single point] |

Rewritten bar-delimited: entries from further up.
Compound | activity change, negative = inhibition | Potency
Cc1ccc(NC(=O)[C@H](Cc2ccccc2)N2Cc3ccccc3C2=O)cc1 | inactive: -2.4% [at 46.1 µM] | –
COc1ccc(-n2nc(C(=O)NCc3cc(OC)ccc3OC)c3c4ccccc4n(C)c3c2=O)cc1 | – | inconclusive: 5.62 µM [inhibitor, single point]
Cc1cc(S(=O)(=O)NCC(c2ccc(F)cc2)N2CCN(C)CC2)ccc1F (stereo not given) | – | inconclusive: 25.1 µM [inhibitor, partial curve, poor fit]
COC(=O)CCNC(=O)c1nn(Cc2ccccc2)c(=O)c2ccccc12 | – | inconclusive: 35.5 µM [inhibitor, single point]
CN1/C(=C/C=C(/C#N)C(N)=O)C(C)(C)c2ccccc21 | – | inconclusive: 1.12 µM [inhibitor, full curve, poor fit]
CC(=O)Nc1ccc(S(=O)(=O)Nc2ccc3c(c2)n(C)c(=O)n3C)c(C)c1 | – | inconclusive: 2.82 µM [activator, partial curve, poor fit]
COc1cc2c(c(OC)c1OC)-c1ccc(OC)c(=O)cc1[C@H](NC(C)=O)CC2 | – | inconclusive: 1.41 µM [inhibitor, full curve]
O=c1c2ccccc2nc(-c2ccco2)n1-c1nccs1 | – | inconclusive: 14.1 µM [inhibitor, partial curve, poor fit]
O=C(CCS(=O)(=O)c1ccccc1)N(CCCN1CCOCC1)c1nc2ccccc2s1 | – | inconclusive: 15.8 µM [inhibitor, partial curve, poor fit]
